Paper PMC7819943, “Rice protein-binding microarrays: a tool to detect cis-acting elements near promoter regions in rice”
Some of the results follow.

Sequences of proteins named here, by UniProt entry; tags and fusion partners are left off.
UniProt Q0JBA9, entry or part of it: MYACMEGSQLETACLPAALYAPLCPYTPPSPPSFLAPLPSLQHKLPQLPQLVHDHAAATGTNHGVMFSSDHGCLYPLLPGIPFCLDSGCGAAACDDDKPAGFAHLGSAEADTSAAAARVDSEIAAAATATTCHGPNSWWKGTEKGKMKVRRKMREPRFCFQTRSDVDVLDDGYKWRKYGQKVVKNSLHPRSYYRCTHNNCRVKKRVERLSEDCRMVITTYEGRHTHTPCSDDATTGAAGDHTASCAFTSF

biological target: OsWRKY34 (Oryza sativa, UniProt Q0JBA9 1-250); assay: protein-binding microarray (RPBM); PBS, 2% BSA, 51.3 ng/ul salmon testes DNA, 50 uM zinc acetate, 200 nM TF, 25 C, 1 h; high values mean tight binding; details: protein: recombinant; tags: N-terminal polyhistidine and DsRed monomer fusion (pET32a); label: CyDye5-dUTP incorporated in the synthesized complementary strand; 3' TTTTT single-stranded linker to array surface; dsDNA, one strand shown
Outline: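 Polyhistidine-tagged DsRed fusions of transcription factors, joined at the N-terminus, were expressed in E. coli BL21-CodonPlus and isolated on Ni–NTA. They were incubated at 200 nM for 1 h at 25 °C on a custom Agilent array, double-stranded and BSA-blocked, in PBS with 2% BSA, salmon testes DNA and 50 µM zinc acetate. The binding signal is per-feature fluorescence intensity (arbitrary units) read on an Axon 4000B scanner after washing.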

| Sequence | binding signal |
| --- | --- |
| CTTATTTGTCTTCGCTGATGTTCACCCGTCAATTCCACATCGGAGTCACCTAGTGCAG | 15700 fluorescence intensity (a.u.) |
| AATTTTCCTATATTTAGAATCCTTTTTGTCCTGTTATAAACGGAGTCACCTAGTGCAG | 8090 fluorescence intensity (a.u.) |
| TATCGCTGCTTGCCCTTGTCCTCATGTACACAATCAGCTTCGGAGTCACCTAGTGCAG | 10300 fluorescence intensity (a.u.) |
| GCTAATCTCATAATCTTGTACTTTATGCTTGTTCTTGATTCGGAGTCACCTAGTGCAG | 8080 fluorescence intensity (a.u.) |
| CTATATTCGAGGGAGTCCTTGTGGACTTTTTCCTTCTTTCCGGAGTCACCTAGTGCAG | 9390 fluorescence intensity (a.u.) |
| GTTTTGCCATGGGTGTTCTCTTTCTTGGTAGTTCTATTTCCGGAGTCACCTAGTGCAG | 9260 fluorescence intensity (a.u.) |
| ATATATATATATATATATATATATATATATATATGAGGGTCGGAGTCACCTAGTGCAG | 10000 fluorescence intensity (a.u.) |
| CTATTGATTGTTGGCGAGCATGTTCTTATCCAGTTGACTTCGGAGTCACCTAGTGCAG | 10700 fluorescence intensity (a.u.) |
| CCTCTTCATCCTACTATTACCACATGGCACGAGTCTACCTCGGAGTCACCTAGTGCAG | 8470 fluorescence intensity (a.u.) |
| CTTGCAACTGTTCTATACCCTTGAGATGGTGACTGCCTTTCGGAGTCACCTAGTGCAG | 8020 fluorescence intensity (a.u.) |
| GCTGGCTACTACTACTACTTGCACTCCACGCCCTCATCCCCGGAGTCACCTAGTGCAG | 9270 fluorescence intensity (a.u.) |
| AATTCTACCGTTCTTGCTTTAATTCATGCCATGTCCGATGCGGAGTCACCTAGTGCAG | 9640 fluorescence intensity (a.u.) |
| TATCAACGTTTACCGTTTCTTCTTTGCCATGTGCTTAATTCGGAGTCACCTAGTGCAG | 9720 fluorescence intensity (a.u.) |
| AGTCGCCGTTCCGCTGTATCGACTAACTTTTATAATAAGTCGGAGTCACCTAGTGCAG | 9000 fluorescence intensity (a.u.) |
| CCCCTGCTGCACGTCCCAAATTATTATCACCTACTCCTACCGGAGTCACCTAGTGCAG | 8930 fluorescence intensity (a.u.) |
| GATGGCATTTGGAGCCATCGACAACTTGCGCCTTAATCACCGGAGTCACCTAGTGCAG | 8610 fluorescence intensity (a.u.) |
| GTTACTGTGCTGTGGCCGATCGATTTTATCATTTATCATTCGGAGTCACCTAGTGCAG | 9190 fluorescence intensity (a.u.) |
| CTCACTGCACACCTTCTTCCAATCACAACACCCCACCATGCGGAGTCACCTAGTGCAG | 8130 fluorescence intensity (a.u.) |
| GGCGAGGCGAATGTGATGGGCTAAGTTTTGTCGTTGGCAACGGAGTCACCTAGTGCAG | 8210 fluorescence intensity (a.u.) |
| CTCCTCTGTAGTGTTACCATTGACAAATATTTATCGGTTTCGGAGTCACCTAGTGCAG | 8890 fluorescence intensity (a.u.) |
| GCCTCACTTGTTATATATTTGAACAAACATTACTTACATACGGAGTCACCTAGTGCAG | 9980 fluorescence intensity (a.u.) |
| CATAACCCATTCCTATTTAATTTTATCTACTTTTCTTAATCGGAGTCACCTAGTGCAG | 9360 fluorescence intensity (a.u.) |
| TCCACTCATAGACGCATCACATAGCCATCTCTCTCTCTCTCGGAGTCACCTAGTGCAG | 9260 fluorescence intensity (a.u.) |

Shown with tabs: entries from further up
Sequence	binding signal
CCCCTGCTGCACGTCCCAAATTATTATCACCTACTCCTACCGGAGTCACCTAGTGCAG	8930 fluorescence intensity (a.u.)
GATGGCATTTGGAGCCATCGACAACTTGCGCCTTAATCACCGGAGTCACCTAGTGCAG	8610 fluorescence intensity (a.u.)
